Results published in the supplement of paper PMC4604168 (melanoma cell lines).
The other results are listed elsewhere or left out. Repeats are few or missing, and single values can be far off.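 Imaging used 1,536-well plates; nuclei positive for cleaved PARP by antibody were divided by total DNA-stained nuclei to yield the apoptosis fraction. Doses for screening kept most cells viable, and cell lines differ markedly in resting and induced cleaved-PARP levels.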

How the values were obtained:
Assay in all cases: cleaved PARP positive nuclei fraction relative to DMSO control; melanoma cells; higher = more apoptosis
Conditions in all cases: library dose: low library concentration; 72 h
MZ2-MEL = test system: MZ2-MEL
MeWo = test system: MeWo
RPMI7951 = test system: RPMI7951
RVH-421 = test system: RVH-421
SkMel28 = test system: SkMel28
SkMel30 = test system: SkMel30
SkMel5 = test system: SkMel5
UACC257 = test system: UACC257
UACC62 = test system: UACC62
WM115 = test system: WM115
WM1716 = test system: WM1716
WM1745 = test system: WM1745
WM3526 = test system: WM3526
WM3619 = test system: WM3619
WM451Lu = test system: WM451Lu

| SMILES | cleaved PARP positive nuclei fraction (MZ2-MEL) | cleaved PARP positive nuclei fraction (MeWo) | cleaved PARP positive nuclei fraction (RPMI7951) | cleaved PARP positive nuclei fraction (RVH-421) | cleaved PARP positive nuclei fraction (SkMel28) | cleaved PARP positive nuclei fraction (SkMel30) | cleaved PARP positive nuclei fraction (SkMel5) | cleaved PARP positive nuclei fraction (UACC257) | cleaved PARP positive nuclei fraction (UACC62) | cleaved PARP positive nuclei fraction (WM115) | cleaved PARP positive nuclei fraction (WM1716) | cleaved PARP positive nuclei fraction (WM1745) | cleaved PARP positive nuclei fraction (WM3526) | cleaved PARP positive nuclei fraction (WM3619) | cleaved PARP positive nuclei fraction (WM451Lu) |
| --- | --- | --- | --- | --- | --- | --- | --- | --- | --- | --- | --- | --- | --- | --- | --- |
| COc1cc2c(Oc3ccc4[nH]c(C)cc4c3F)ncnc2cc1OCCCN1CCCC1 [cediranib] + C/C(O)=C(\C#N)C(=O)Nc1cc(Br)ccc1Br [LFM-A13] (first compound 0.4 µM, partner dose 2 µM) | 118% | 51.5% | 133% | 53.8% | 100% | 145% | 162% | 94% | 106% | 213% | 45% | 99.3% | 44.2% | 73.8% | 84% |
| C[C@]12O[C@H](C[C@]1(O)CO)n1c3ccccc3c3c4c(c5c6ccccc6n2c5c31)CNC4=O [Lestaurtinib] + NC(=O)Nc1cc(-c2cccc(F)c2)sc1C(=O)N[C@H]1CCCNC1 [AZD7762] (first compound 0.004 µM, partner dose 0.02 µM) | 63.8% | 78.4% | 34% | 107% | 51.4% | 100% | 60.4% | 106% | 93.1% | 142% | 192% | 110% | 168% | 166% | 40.8% |
| Cc1cc(N2CCOCC2)cc2[nH]c(-c3c(NC[C@@H](O)c4cccc(Cl)c4)cc[nH]c3=O)nc12 + C/C(O)=C(\C#N)C(=O)Nc1cc(Br)ccc1Br [LFM-A13] (first compound 0.2 µM, partner dose 2 µM) | 117% | 351% | 43.4% | 46.8% | 257% | 815% | 60.8% | 73.2% | 94.7% | 67.8% | 82.5% | 122% | 127% | 72.6% | 47.8% |
| C[As](C)SC[C@H](NC(=O)CC[C@H](N)C(=O)O)C(=O)NCC(=O)O [Darinaparsin] + O=S(=O)(c1ccccc1)N(CC(F)(F)F)c1ccc(C(O)(C(F)(F)F)C(F)(F)F)cc1 [T0901317] (first compound 0.4 µM, partner dose 1.4 µM) | 44.2% | 222% | 69.2% | 101% | 166% | 54.3% | 131% | 62.3% | 248% | 74% | 130% | 117% | 75.4% | 83.1% | 58.9% |
| Cc1cc(N2CCOCC2)cc2[nH]c(-c3c(NC[C@@H](O)c4cccc(Cl)c4)cc[nH]c3=O)nc12 + O=C(Oc1ccc([N+](=O)[O-])cc1)N1CCC(C(O)(c2ccc3c(c2)OCO3)c2ccc3c(c2)OCO3)CC1 [JZL184] (first compound 0.2 µM, partner dose 1 µM) | 234% | 60% | 80.8% | 162% | 111% | 18.3% | 228% | 192% | 84.6% | 71.6% | 114% | 135% | 158% | 108% | 119% |
| CC1(C)NC(=O)N(c2ccc([N+](=O)[O-])c(C(F)(F)F)c2)C1=O [nilutamide] + C/C(O)=C(\C#N)C(=O)Nc1cc(Br)ccc1Br [LFM-A13] (first compound 1 µM, partner dose 2 µM) | 68.2% | 122% | 81.3% | 45.3% | 56.1% | 81% | 39.6% | 164% | 81.9% | 192% | 89.5% | 118% | 36.2% | 97% | 60.1% |
| C[C@]12O[C@H](C[C@]1(O)CO)n1c3ccccc3c3c4c(c5c6ccccc6n2c5c31)CNC4=O [Lestaurtinib] + Oc1nc(-c2ccc(C(F)(F)F)cc2)nc2c1CSCC2 [XAV939] (first compound 0.004 µM, partner dose 2 µM) | 102% | 95.4% | 52.3% | 248% | 169% | 178% | 88.1% | 88.9% | 90.3% | 197% | 229% | 119% | 85.5% | 102% | 60.5% |
| c1cc(-c2cnn3cc(-c4ccc(OCCN5CCCCC5)cc4)cnc23)ccn1 [Dorsomorphin] + O=C(Oc1ccc([N+](=O)[O-])cc1)N1CCC(C(O)(c2ccc3c(c2)OCO3)c2ccc3c(c2)OCO3)CC1 [JZL184] (first compound 0.4 µM, partner dose 1 µM) | 147% | 109% | 87% | 85.7% | 101% | 14.7% | 139% | 85.6% | 50.7% | 69.1% | 67.2% | 106% | 225% | 82.5% | 339% |
| C/C(O)=C(\C#N)C(=O)Nc1cc(Br)ccc1Br + Cn1cc(/C=C2\C(=O)Nc3cccnc32)c2ccccc21 [GW441756] (first compound 2 µM, partner dose 0.4 µM) | 62.8% | 107% | 182% | 44% | 197% | 8.63% | 234% | 179% | 167% | 147% | 94.4% | 122% | 75.3% | 69.2% | 79.5% |
| N#Cc1c(O)c2c(-c3ccc(-c4ccccc4O)cc3)csc2[nH]c1=O + Cc1cc(SCc2sc(-c3ccc(C(F)(F)F)c(F)c3)nc2C)ccc1OCC(=O)O [GW0742] (first compound 2 µM, partner dose 2 µM) | 132% | 111% | 92.4% | 52.1% | 54% | 238% | 41.5% | 41.7% | 101% | 93.6% | 165% | 115% | 169% | 82.1% | 864% |
| CN(C)S(=O)(=O)c1ccc2c(c1)/C(=C/c1cc3c([nH]1)CCCC3)C(=O)N2 + O=C(Oc1ccc([N+](=O)[O-])cc1)N1CCC(C(O)(c2ccc3c(c2)OCO3)c2ccc3c(c2)OCO3)CC1 [JZL184] (first compound 0.4 µM, partner dose 1 µM) | 88% | 91% | 173% | 101% | 144% | 33.6% | 58.2% | 103% | 248% | 86.4% | 101% | 104% | 56.2% | 70.2% | 30.9% |
| COC(=O)c1sccc1S(=O)(=O)Nc1ccc(Nc2ccccc2)cc1OC + Cc1cc(SCc2sc(-c3ccc(C(F)(F)F)c(F)c3)nc2C)ccc1OCC(=O)O [GW0742] (first compound 1 µM, partner dose 2 µM) | 159% | 55.2% | 89.6% | 38% | 69.1% | 49.9% | 129% | 46% | 80.2% | 77.2% | 110% | 110% | 44.5% | 545% | 86.4% |
| Cc1cc(N2CCOCC2)cc2[nH]c(-c3c(NC[C@@H](O)c4cccc(Cl)c4)cc[nH]c3=O)nc12 + Cc1cc(SCc2sc(-c3ccc(C(F)(F)F)c(F)c3)nc2C)ccc1OCC(=O)O [GW0742] (first compound 0.2 µM, partner dose 2 µM) | 195% | 108% | 116% | 58.9% | 130% | 113% | 67.9% | 212% | 140% | 66.7% | 35.6% | 117% | 64.8% | 96.6% | 123% |
| COc1cc(Nc2ncc(F)c(Nc3ccc4c(n3)NC(=O)C(C)(C)O4)n2)cc(OC)c1OC [Tamatinib] + Cc1cc(SCc2sc(-c3ccc(C(F)(F)F)c(F)c3)nc2C)ccc1OCC(=O)O [GW0742] (first compound 0.4 µM, partner dose 2 µM) | 91.3% | 41.4% | 120% | 56.4% | 129% | 31.6% | 261% | 274% | 385% | 215% | 113% | 128% | 81.8% | 87% | 147% |
| C[C@]12O[C@H](C[C@]1(O)CO)n1c3ccccc3c3c4c(c5c6ccccc6n2c5c31)CNC4=O [Lestaurtinib] + COc1cc(N2CCC(N3CCN(C)CC3)CC2)ccc1Nc1ncc(Cl)c(Nc2ccccc2S(=O)(=O)C(C)C)n1 [NVP-TAE684] (first compound 0.004 µM, partner dose 0.08 µM) | 134% | 115% | 254% | 68.9% | 193% | 119% | 43.2% | 237% | 120% | 251% | 225% | 103% | 99.4% | 123% | 55.3% |
| C[C@]12O[C@H](C[C@]1(O)CO)n1c3ccccc3c3c4c(c5c6ccccc6n2c5c31)CNC4=O [Lestaurtinib] + O=C(Nc1ccccc1)c1cc([N+](=O)[O-])ccc1Cl [GW9662] (first compound 0.004 µM, partner dose 2 µM) | 73.7% | 49.2% | 64.3% | 128% | 67.9% | 141% | 74.8% | 109% | 93.2% | 26.2% | 480% | 96.7% | 60.1% | 92.9% | 57.7% |
| Cc1nc(Nc2ncc(C(=O)Nc3c(C)cccc3Cl)s2)cc(N2CCN(CCO)CC2)n1 [dasatanib] + Cc1cc(SCc2sc(-c3ccc(C(F)(F)F)c(F)c3)nc2C)ccc1OCC(=O)O [GW0742] (first compound 0.004 µM, partner dose 2 µM) | 197% | 101% | 146% | 57.8% | 161% | 127% | 270% | 316% | 123% | 107% | 216% | 163% | 198% | 97.4% | 606% |
| O=C(Oc1ccc([N+](=O)[O-])cc1)N1CCC(C(O)(c2ccc3c(c2)OCO3)c2ccc3c(c2)OCO3)CC1 + O=c1cc(-c2cccc3c2Sc2ccccc2S3)oc(N2CCOCC2)c1 [KU55933] (first compound 1 µM, partner dose 1 µM) | 76.1% | 188% | 40.7% | 93.7% | 167% | 264% | 62.1% | 129% | 178% | 58.1% | 102% | 94.5% | 101% | 93.7% | 83.7% |
| C[C@]12O[C@H](C[C@]1(O)CO)n1c3ccccc3c3c4c(c5c6ccccc6n2c5c31)CNC4=O [Lestaurtinib] + COc1ccc2c(c1)CCC1C2CCC2(C)C(NCCCCCCN3C(=O)C=CC3=O)CCC12 [U73122] (first compound 0.004 µM, partner dose 0.4 µM) | 56.4% | 251% | 174% | 49.7% | 157% | 45.7% | 73.6% | 191% | 115% | 102% | 210% | 92.4% | 70.1% | 114% | 32.1% |
| C[C@]12O[C@H](C[C@]1(O)CO)n1c3ccccc3c3c4c(c5c6ccccc6n2c5c31)CNC4=O [Lestaurtinib] + O=C(O)C(=O)Nc1sc2c(c1C(=O)O)CCNC2 [TCS401] (first compound 0.004 µM, partner dose 1.66667 µM) | 27.5% | 41.7% | 58.2% | 78.7% | 95.2% | 33.7% | 122% | 172% | 124% | 119% | 188% | 103% | 87% | 71.3% | 60.2% |

Some of the entries above in another layout:
SMILES | cleaved PARP positive nuclei fraction (MZ2-MEL) | cleaved PARP positive nuclei fraction (MeWo) | cleaved PARP positive nuclei fraction (RPMI7951) | cleaved PARP positive nuclei fraction (RVH-421) | cleaved PARP positive nuclei fraction (SkMel28) | cleaved PARP positive nuclei fraction (SkMel30) | cleaved PARP positive nuclei fraction (SkMel5) | cleaved PARP positive nuclei fraction (UACC257) | cleaved PARP positive nuclei fraction (UACC62) | cleaved PARP positive nuclei fraction (WM115) | cleaved PARP positive nuclei fraction (WM1716) | cleaved PARP positive nuclei fraction (WM1745) | cleaved PARP positive nuclei fraction (WM3526) | cleaved PARP positive nuclei fraction (WM3619) | cleaved PARP positive nuclei fraction (WM451Lu)
Cc1cc(N2CCOCC2)cc2[nH]c(-c3c(NC[C@@H](O)c4cccc(Cl)c4)cc[nH]c3=O)nc12 + C/C(O)=C(\C#N)C(=O)Nc1cc(Br)ccc1Br [LFM-A13] (first compound 0.2 µM, partner dose 2 µM) | 117% | 351% | 43.4% | 46.8% | 257% | 815% | 60.8% | 73.2% | 94.7% | 67.8% | 82.5% | 122% | 127% | 72.6% | 47.8%
C[As](C)SC[C@H](NC(=O)CC[C@H](N)C(=O)O)C(=O)NCC(=O)O [Darinaparsin] + O=S(=O)(c1ccccc1)N(CC(F)(F)F)c1ccc(C(O)(C(F)(F)F)C(F)(F)F)cc1 [T0901317] (first compound 0.4 µM, partner dose 1.4 µM) | 44.2% | 222% | 69.2% | 101% | 166% | 54.3% | 131% | 62.3% | 248% | 74% | 130% | 117% | 75.4% | 83.1% | 58.9%
Cc1cc(N2CCOCC2)cc2[nH]c(-c3c(NC[C@@H](O)c4cccc(Cl)c4)cc[nH]c3=O)nc12 + O=C(Oc1ccc([N+](=O)[O-])cc1)N1CCC(C(O)(c2ccc3c(c2)OCO3)c2ccc3c(c2)OCO3)CC1 [JZL184] (first compound 0.2 µM, partner dose 1 µM) | 234% | 60% | 80.8% | 162% | 111% | 18.3% | 228% | 192% | 84.6% | 71.6% | 114% | 135% | 158% | 108% | 119%
CC1(C)NC(=O)N(c2ccc([N+](=O)[O-])c(C(F)(F)F)c2)C1=O [nilutamide] + C/C(O)=C(\C#N)C(=O)Nc1cc(Br)ccc1Br [LFM-A13] (first compound 1 µM, partner dose 2 µM) | 68.2% | 122% | 81.3% | 45.3% | 56.1% | 81% | 39.6% | 164% | 81.9% | 192% | 89.5% | 118% | 36.2% | 97% | 60.1%
C[C@]12O[C@H](C[C@]1(O)CO)n1c3ccccc3c3c4c(c5c6ccccc6n2c5c31)CNC4=O [Lestaurtinib] + Oc1nc(-c2ccc(C(F)(F)F)cc2)nc2c1CSCC2 [XAV939] (first compound 0.004 µM, partner dose 2 µM) | 102% | 95.4% | 52.3% | 248% | 169% | 178% | 88.1% | 88.9% | 90.3% | 197% | 229% | 119% | 85.5% | 102% | 60.5%
c1cc(-c2cnn3cc(-c4ccc(OCCN5CCCCC5)cc4)cnc23)ccn1 [Dorsomorphin] + O=C(Oc1ccc([N+](=O)[O-])cc1)N1CCC(C(O)(c2ccc3c(c2)OCO3)c2ccc3c(c2)OCO3)CC1 [JZL184] (first compound 0.4 µM, partner dose 1 µM) | 147% | 109% | 87% | 85.7% | 101% | 14.7% | 139% | 85.6% | 50.7% | 69.1% | 67.2% | 106% | 225% | 82.5% | 339%
